Test results published in PMC7862700.
This is a selection; strong and weak results do not stand in their true shares. At the low end of the ranking the order means little.

These sequences were tested against T1, ETV3 (UniProt P41162-2) (assay: DAPPL (digital affinity profiling via proximity ligation, sequencing)). Conditions: 10 mM Tris-HCl pH 7.5, 50 mM NaCl, 1 mM DTT, 4% glycerol, room temperature, 30 min; GST-TFs on glutathione beads, 16-mer random dsDNA library, 0.1% …; high values mean tight binding; double strand, one strand shown; scale: fold enrichment (6-mer frequency, TF over GST control).
T1 sequence: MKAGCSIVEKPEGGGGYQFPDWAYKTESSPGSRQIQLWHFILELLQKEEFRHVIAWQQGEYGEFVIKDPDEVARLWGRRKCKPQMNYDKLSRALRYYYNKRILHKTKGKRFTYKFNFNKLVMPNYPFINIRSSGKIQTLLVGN

Q: How did the binding signal turn out when AGCTTA was run?
A: 1.17

Q: For ACCACG, which binding signal is on record?
A: 1.04

Q: With CATCAA as the sequence, how does the binding signal read?
A: 0.974

Q: How did the binding signal turn out when TCGAGT was run?
A: 0.92

Q: How did the binding signal turn out when GACTGC was run?
A: 0.997

Q: For GAAAAT, which binding signal is on record?
A: 1.07

Q: Which binding signal does the source give for TAGACA here?
A: 0.99

Q: TTCCCG was tested. Which binding signal did it give?
A: 1.92

Q: Which binding signal does the source give for CCCCCC here?
A: 1.14

Q: For ACTGAA, which binding signal is on record?
A: 1.21

Q: How did the binding signal turn out when GATGTA was run?
A: 1.39

Q: With ATCACG as the sequence, how does the binding signal read?
A: 0.967

Q: ACAGCA was tested. Which binding signal did it give?
A: 1

Q: With AGAATG as the sequence, how does the binding signal read?
A: 0.919

Q: With TTCCGG as the sequence, how does the binding signal read?
A: 6.28

Q: Which binding signal does the source give for GATTGC here?
A: 0.897

Q: How did the binding signal turn out when GGTGGT was run?
A: 0.938

Q: For GTCTAT, which binding signal is on record?
A: 1

Q: For TCCCCG, which binding signal is on record?
A: 1.27

Q: For AACGCA, which binding signal is on record?
A: 1.03

Q: With ATGGGG as the sequence, how does the binding signal read?
A: 1.13

Q: Which binding signal does the source give for AAGCCC here?
A: 1.1

Q: For CACCTG, which binding signal is on record?
A: 1.03

Q: Which binding signal does the source give for CATGGG here?
A: 0.937

Q: For GGTCTG, which binding signal is on record?
A: 0.924

Q: Which binding signal does the source give for GCAAAC here?
A: 1.04

Q: Which binding signal does the source give for CTATAG here?
A: 1.09

Q: GATTAA was tested. Which binding signal did it give?
A: 0.994

Q: For GCCCGG, which binding signal is on record?
A: 1.07

Q: Which binding signal does the source give for TCGGCT here?
A: 0.925

Q: With GACCGC as the sequence, how does the binding signal read?
A: 0.903

Q: For ATGTGC, which binding signal is on record?
A: 1.15

Q: GCGTAT was tested. Which binding signal did it give?
A: 0.927

Q: CGCTAA was tested. Which binding signal did it give?
A: 0.986

Q: How did the binding signal turn out when AACGAT was run?
A: 1.24

Q: With GAATGG as the sequence, how does the binding signal read?
A: 0.92

Q: With CAAAAG as the sequence, how does the binding signal read?
A: 1
